Measurements as given in PubChem BioAssay AID1671190 (National Center for Advancing Translational Sciences (NCATS), 2021).
Screen size: about 580,000 compounds; about 6,100 (1.1%) were called active. The inconclusive results got no clear call from the source; some entries with a clear call stand among them for comparison. Calls follow the shape of the dose curve; as a rule, active = well fitted inhibition curve with a large enough effect; inconclusive = small, poorly fitted or top-dose-only effect, or another doubt; inactive = no such curve, though single readings can be large or run the other way. Potencies beside an inconclusive call are fits to weak or partial responses and may not hold up.
Potency is read from the fitted curve at half-maximal effect.

Protein sequences, listed by entry. Tags and fused reporters are not part of them.
UniProt P18054, whole entry, looked up: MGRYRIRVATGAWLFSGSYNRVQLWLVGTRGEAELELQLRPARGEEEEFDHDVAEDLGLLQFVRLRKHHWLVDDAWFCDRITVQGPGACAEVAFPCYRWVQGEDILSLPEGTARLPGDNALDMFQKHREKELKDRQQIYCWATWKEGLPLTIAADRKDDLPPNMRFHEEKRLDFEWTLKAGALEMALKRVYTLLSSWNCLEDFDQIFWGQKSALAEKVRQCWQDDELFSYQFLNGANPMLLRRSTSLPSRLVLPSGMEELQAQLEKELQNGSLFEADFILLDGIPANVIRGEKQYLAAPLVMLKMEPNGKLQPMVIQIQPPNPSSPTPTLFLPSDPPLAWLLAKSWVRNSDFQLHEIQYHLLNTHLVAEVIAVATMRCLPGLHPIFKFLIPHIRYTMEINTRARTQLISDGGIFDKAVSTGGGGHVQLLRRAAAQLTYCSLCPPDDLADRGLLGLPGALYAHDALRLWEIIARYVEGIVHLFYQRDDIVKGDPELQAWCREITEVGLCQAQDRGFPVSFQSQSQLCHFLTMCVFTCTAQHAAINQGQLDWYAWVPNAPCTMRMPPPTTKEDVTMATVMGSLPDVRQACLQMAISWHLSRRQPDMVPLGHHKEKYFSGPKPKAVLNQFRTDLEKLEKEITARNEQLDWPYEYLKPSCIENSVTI

The molecules below were run against Polyunsaturated fatty acid lipoxygenase ALOX12 (Homo sapiens) (UniProt P18054) (assay: Primary qHTS assay for inhibitors of human arachidonate 12S-lipoxygenase (ALOX12): Round 2). Conditions: purified 12hLO, xylenol orange hydroperoxide absorbance; series mostly up to 108 µM.
In short: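 Hydroperoxide product was detected by ferrous iron/xylenol orange as the 573 to 405 nm absorbance ratio. Arachidonic acid at 40 uM (final) was turned over for 30 min at room temperature by 150 nM human 12hLO, pH 7.0 Hepes buffer, after 15 min compound preincubation.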
In the case of `O=C1NC2(CCN(C(=O)c3ccc(Cl)cc3)C2)Oc2ccccc21` (configuration not stated), the Potency is reported as inconclusive: 70.8 µM [inhibitor, partial curve, poor fit].
For `Nc1nccnc1C(=O)NCCCc1ccccc1`, the Potency was inconclusive: 141 µM [inhibitor, single point].
In the case of `CC(=O)c1ccc(OCc2ccc(-c3ccccc3C#N)cc2)cc1`, the Potency is reported as inconclusive: 100 µM [inhibitor, single point].
In the case of `CC(C)NC(=O)N1Cc2[nH]cnc2C[C@H]1c1nc(-c2ccc(Cl)cc2)no1`, the Potency is reported as active: 14.1 µM.
For `CC(C)CCNCC(O)CON=C1c2ccccc2-c2ccccc21` (configuration not stated), the Potency was “inactive”.
With `O=C(O)CN1CCCC1` the Potency was inconclusive: 2.51 µM [inhibitor, full curve, poor fit].
In the case of `Cc1ccc(C2C=C(c3ccccc3)Nc3nc(NS(=O)(=O)c4ccccc4)nn32)cc1` (configuration not stated), the Potency is reported as inconclusive: 126 µM [inhibitor, single point].
For `COc1ccc(Br)cc1S(=O)(=O)Nc1cc(-c2cn3ccccc3n2)ccc1C`, the Potency was inconclusive: 112 µM [inhibitor, partial curve, poor fit].
For `Cn1c(NCc2ccco2)nc2c1c(=O)n(Cc1cccc(Br)c1)c(=O)n2C`, the Potency was inconclusive: 126 µM [inhibitor, single point].
With `COc1ccc(CCC(=O)N2CCC3(CC2)NC(=O)N(c2ccc(F)cc2)N3)cc1` the Potency was inconclusive: 2 µM [inhibitor, full curve, poor fit].
For `Cc1ccc2[nH]c(O)c(N=NC(N)=S)c2c1`, the Potency was inconclusive: 44.7 µM [inhibitor, partial curve, poor fit].
With `CN(Cc1ccccc1)C(=O)c1ccc(CSc2nc3cccnc3n2Cc2ccccc2F)cc1` the Potency was inconclusive: 0.501 µM [inhibitor, full curve].
`CCN(CC)C(=O)c1sc(NC(=O)Cc2cccs2)c(C#N)c1C` was tested, and the Potency was “inactive”.
For `CCCOc1c(Br)cc(/C=C(/C#N)C(=O)OCC)cc1OC`, the Potency was inconclusive: 141 µM [inhibitor, partial curve, poor fit].
In the case of `CC(C)c1nc2cc(NC(=O)c3n[nH]c(=O)c4ccccc34)ccc2o1`, the Potency is reported as “inactive”.
For `O=C(Cc1ccc(F)cc1)N1CCC(c2nc3c(nnn3Cc3ccccc3F)c(=O)[nH]2)CC1`, the Potency was inconclusive: 56.2 µM [inhibitor, partial curve, poor fit].
For `O=C(CNC(=O)/C=C/c1ccco1)N=Nc1c(O)[nH]c2ccccc12`, the Potency was “inactive”.
`COc1ccc(CCN2C(=O)C(O)=C(C(=O)c3ccco3)C2c2cccs2)cc1OC` (configuration not stated) was tested, and the Potency was inconclusive: 17.8 µM [inhibitor, partial curve, poor fit].
In the case of `Cc1cccc(Cl)c1OCCN1CCCC1`, the Potency is reported as inconclusive: 0.355 µM [inhibitor, full curve, poor fit].
In the case of `O=C(NC(=S)Nc1cccc2cc(O)ccc12)c1ccco1`, the Potency is reported as inconclusive: 44.7 µM [inhibitor, partial curve, poor fit].
`O=C(c1ccccc1)N(CCO)Cc1cc2cc3c(cc2[nH]c1=O)OCCO3` was tested, and the Potency was “inactive”.
With `Cc1ccccc1OCC(=O)NCC(=O)N/N=C/c1ccc(Br)o1` the Potency was “inactive”.
For `OC(CNc1nc(-c2cccnc2)nc2ccccc12)c1ccccc1` (configuration not stated), the Potency was inconclusive: 89.1 µM [inhibitor, partial curve, poor fit].
For `CCOc1cccc(N2C(=O)CC(N(CCc3ccc(OC)c(OC)c3)C(=O)CC)C2=O)c1` (configuration not stated), the Potency was inconclusive: 3.98 µM [inhibitor, partial curve, poor fit].
For `O=C(Nc1ccccc1N1CCCCC1)C1CCN(C(=O)c2ccc(Cl)cc2)CC1`, the Potency was inconclusive: 100 µM [inhibitor, single point].
`CCc1nn(-c2ccccc2)c(Oc2ccccc2OC)c1CCC(=O)NCCOC` was tested, and the Potency was inconclusive: 79.4 µM [inhibitor, single point].
In the case of `CC(=O)Nc1cccc(NC(=O)C2CCCN2C(=O)Nc2ccc(Cl)cc2)c1` (configuration not stated), the Potency is reported as inconclusive: 39.8 µM [inhibitor, single point].
For `Cc1ccc(C(=O)OC2CCCN(C)C2)cc1` (configuration not stated), the Potency was inconclusive: 79.4 µM [inhibitor, single point].
`CCC(=O)OCOc1ccc(/C=C2/CCC(CN(C)C)C2=O)cc1` (configuration not stated) was tested, and the Potency was active: 35.5 µM.
With `Cc1cc(S(=O)(=O)N2CCOC23CCN(C(=O)c2ccccc2C(F)(F)F)CC3)ccc1F` the Potency was inconclusive: 44.7 µM [inhibitor, partial curve, poor fit].
For `COc1cc(C(=O)NC2=NCCS2)cc(OC)c1OC`, the Potency was inconclusive: 31.6 µM [inhibitor, single point].
`COc1cc(/C=C/C(=O)NCCc2ccc(S(N)(=O)=O)cc2)ccc1OCC#N` was tested, and the Potency was “inactive”.
`c1ccc([C@H]2CN3CCSC3=N2)cc1` was tested, and the Potency was inconclusive: 27.3 µM [inhibitor, partial curve, poor fit].
With `CCCCn1c(N)c(N(Cc2ccccc2OC)C(=O)CSCC(=O)Nc2cccc(C)c2)c(=O)[nH]c1=O` the Potency was “inactive”.
For `Cc1noc(C)c1-c1ccc(C(=O)NC2CCCCC2)c2occc12`, the Potency was inconclusive: 100 µM [inhibitor, partial curve, poor fit].
In the case of `Cc1noc(-c2ccccc2Cl)c1C(=O)NCCCCc1ccccc1`, the Potency is reported as inconclusive: 35.5 µM [inhibitor, full curve, poor fit].
In the case of `COc1ccc(-c2oc3ncn4nc(COc5ccccc5)nc4c3c2-c2ccc(OC)cc2)cc1`, the Potency is reported as “inactive”.
`CC(C)c1nnc(N2C(=O)c3oc4ccccc4c(=O)c3C2c2ccccc2F)s1` (configuration not stated) was tested, and the Potency was inconclusive: 10 µM [inhibitor, full curve].
`CCCCC(=O)NC(c1ccccc1OC)c1ccc2cccnc2c1O` (configuration not stated) was tested, and the Potency was “inactive”.
For `CCn1c(SCC(=O)Nc2ccc(NC(C)=O)cc2)nnc1C1CC1`, the Potency was inconclusive: 35.5 µM [inhibitor, single point].
For `CCc1nnc(NS(=O)(=O)c2ccc(NC(=O)/C=C/c3ccccc3Cl)cc2)s1`, the Potency was inconclusive: 6.31 µM [inhibitor, single point].
For `Cc1c(C)n(Cc2ccncc2)c2ncn3ncnc3c12`, the Potency was “inactive”.
`COc1cc(/C=N/NC(=S)Nc2cccc(Cl)c2C)ccc1OCC(=O)N1CC(C)OC(C)C1` (configuration not stated) was tested, and the Potency was active: 44.7 µM.
With `CCc1ccc(Nc2c3c(nc4ccccc24)CCC3)cc1` the Potency was inconclusive: 44.7 µM [inhibitor, partial curve, poor fit].
For `COc1cccc(OCc2cc(C(=O)NCCc3cccc(C)n3)no2)c1`, the Potency was “inactive”.
For `Cc1cc(C)c2ccc(=S)[nH]c2n1`, the Potency was inconclusive: 25.1 µM [inhibitor, partial curve].
In the case of `O=C(COC(=O)c1ccc(O)cc1)NCC1CCCO1` (configuration not stated), the Potency is reported as inconclusive: 89.1 µM [inhibitor, single point].
`COCCN1C(=O)c2ccc(C(=O)O)cc2C1=O` was tested, and the Potency was inconclusive: 0.398 µM [inhibitor, full curve, poor fit].
In the case of `COc1cc(/C=N/NC(=O)c2ccncc2)c([N+](=O)[O-])cc1OC`, the Potency is reported as inconclusive: 35.5 µM [inhibitor, partial curve].
In the case of `O=C1NC(=NC2CCCC2)C2(CCCN(Cc3cccnc3)C2)N1c1cc(F)cc(F)c1` (configuration not stated), the Potency is reported as “inactive”.
For `CC(O)(c1cccnc1)c1nc(-c2cc(F)cc(F)c2)cs1` (configuration not stated), the Potency was inconclusive: 112 µM [inhibitor, single point].
In the case of `CCc1ccccc1C1C(=O)c2ccccc2C1=O`, the Potency is reported as inconclusive: 126 µM [inhibitor, single point].
`CC[C@]1(O)C[C@@H]2CN(CCc3c([nH]c4ccccc34)[C@](C(=O)OC)(c3cc4c(cc3OC)N(C=O)[C@H]3[C@@](O)(C(=O)OC)[C@H](C(=O)OC)[C@@]5(CC)C=CCN6CC[C@]43[C@H]65)C2)C1` was tested, and the Potency was inconclusive: 35.5 µM [inhibitor, partial curve, poor fit].
For `CCN(CC)CC1CCN(c2ncc3ncnc(Nc4ccc(F)c(Cl)c4)c3n2)CC1`, the Potency was inconclusive: 7.08 µM [inhibitor, partial curve, poor fit].
For `Cc1ccc(C(=O)NCC(c2ccc(F)cc2)N2CCOCC2)s1` (configuration not stated), the Potency was inconclusive: 141 µM [inhibitor, single point].
With `Cc1ccccc1OCCC(=O)N1CCN(S(=O)(=O)c2ccc(F)cc2)CC1` the Potency was “inactive”.
`Cc1nc(NC(=O)c2ccccc2)sc1-c1csc(Nc2ccc(C(=O)O)cc2)n1` was tested, and the Potency was “inactive”.
`CCc1ccc(Nc2nc(-c3ccc4c(c3)CC(=O)N4)cs2)cc1` was tested, and the Potency was inconclusive: 20 µM [inhibitor, full curve].
With `CCc1ccc(C(=O)COC(=O)c2ccc(S(=O)(=O)NCc3ccco3)cc2)cc1` the Potency was inconclusive: 35.5 µM [inhibitor, partial curve].
In the case of `COc1ccc(CNC(=S)NC2CCCC2)cc1`, the Potency is reported as “inactive”.
`O=C(CN(Cc1ccccc1)S(=O)(=O)c1ccc(F)cc1)NCCC1=CCCCC1` was tested, and the Potency was “inactive”.
`COc1ccc(C)cc1N(C(=O)c1ccc(C#N)cc1)C1=NC(C)(C)CS1` was tested, and the Potency was “inactive”.
`COc1ccc(NC(=O)CSc2ccc(-c3ccco3)nn2)cc1` was tested, and the Potency was inconclusive: 39.8 µM [inhibitor, partial curve, poor fit].
In the case of `COc1ccc(C(=O)NC2CCN(c3cn[nH]c(=O)c3)CC2)cc1`, the Potency is reported as inconclusive: 8.91 µM [inhibitor, partial curve, poor fit].
In the case of `CN(C)C(=O)c1cc(=O)c2cc(Cl)ccc2o1`, the Potency is reported as inconclusive: 3.16 µM [inhibitor, full curve, poor fit].
For `CCSc1nc(-c2ccccc2Cl)nc2c1Cc1c(CO)cnc(C)c1O2`, the Potency was inconclusive: 39.8 µM [inhibitor, single point].
With `CC1CCc2[nH]c3ccc(C(=O)N(C)CC(=O)Nc4ccccc4Cl)cc3c2C1` (configuration not stated) the Potency was inconclusive: 89.1 µM [inhibitor, single point].
